Experimental data as given in publication PMC4439739.
No constants are given. Whether binding was seen depends on the method and setting. In cells and extracts the contact can be indirect. These calls come from enrichment with a bait or labelling near it, and not all partners need be listed. For some assays here: Sequences can lack the tags named with a protein.

The chains behind the UniProt entries cited, without tags or fusion partners.
UniProt Q5XKP0: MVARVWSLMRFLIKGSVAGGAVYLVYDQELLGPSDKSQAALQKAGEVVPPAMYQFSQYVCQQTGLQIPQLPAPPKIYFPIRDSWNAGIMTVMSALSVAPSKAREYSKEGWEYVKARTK

T1: MIC60 C-terminally tagged with HA-FLAG (human) (UniProt Q16891)
T1 sequence: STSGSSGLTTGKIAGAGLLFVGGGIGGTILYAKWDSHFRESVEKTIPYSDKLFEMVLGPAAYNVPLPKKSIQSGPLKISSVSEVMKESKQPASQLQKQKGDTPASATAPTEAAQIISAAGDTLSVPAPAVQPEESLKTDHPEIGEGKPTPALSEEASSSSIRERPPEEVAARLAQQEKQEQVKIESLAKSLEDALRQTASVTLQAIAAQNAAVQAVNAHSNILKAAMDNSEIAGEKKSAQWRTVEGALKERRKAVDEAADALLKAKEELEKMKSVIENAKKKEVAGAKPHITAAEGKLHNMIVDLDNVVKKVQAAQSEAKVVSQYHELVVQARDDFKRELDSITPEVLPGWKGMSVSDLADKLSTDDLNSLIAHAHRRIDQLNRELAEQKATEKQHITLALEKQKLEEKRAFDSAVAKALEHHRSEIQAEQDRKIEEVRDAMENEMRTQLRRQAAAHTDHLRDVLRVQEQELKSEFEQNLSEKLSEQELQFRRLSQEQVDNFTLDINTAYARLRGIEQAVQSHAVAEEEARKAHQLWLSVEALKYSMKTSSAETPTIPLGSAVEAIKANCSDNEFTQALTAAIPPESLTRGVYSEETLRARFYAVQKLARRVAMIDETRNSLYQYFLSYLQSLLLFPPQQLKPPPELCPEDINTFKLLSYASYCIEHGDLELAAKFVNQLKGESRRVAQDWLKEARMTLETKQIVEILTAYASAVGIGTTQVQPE

T2: MIC27 C-terminally tagged with HA-FLAG (human) (UniProt Q6UXV4)
T2 sequence: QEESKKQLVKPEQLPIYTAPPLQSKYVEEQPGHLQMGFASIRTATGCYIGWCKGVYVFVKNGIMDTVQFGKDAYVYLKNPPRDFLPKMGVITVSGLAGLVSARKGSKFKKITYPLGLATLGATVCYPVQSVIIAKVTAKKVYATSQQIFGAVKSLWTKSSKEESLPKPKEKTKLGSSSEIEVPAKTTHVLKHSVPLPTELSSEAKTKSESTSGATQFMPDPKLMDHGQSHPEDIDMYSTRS

T3: MIC25 C-terminally tagged with HA-FLAG (human) (UniProt Q9BRQ6)
T3 sequence: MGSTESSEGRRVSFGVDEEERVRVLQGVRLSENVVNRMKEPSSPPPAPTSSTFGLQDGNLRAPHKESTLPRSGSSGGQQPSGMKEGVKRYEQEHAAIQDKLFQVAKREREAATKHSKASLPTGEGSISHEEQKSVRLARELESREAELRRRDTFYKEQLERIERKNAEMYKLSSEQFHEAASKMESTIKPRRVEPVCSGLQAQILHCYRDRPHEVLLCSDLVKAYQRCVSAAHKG

T4: MIC19 C-terminally tagged with HA-FLAG (human) (UniProt Q9NX63)
T4 sequence: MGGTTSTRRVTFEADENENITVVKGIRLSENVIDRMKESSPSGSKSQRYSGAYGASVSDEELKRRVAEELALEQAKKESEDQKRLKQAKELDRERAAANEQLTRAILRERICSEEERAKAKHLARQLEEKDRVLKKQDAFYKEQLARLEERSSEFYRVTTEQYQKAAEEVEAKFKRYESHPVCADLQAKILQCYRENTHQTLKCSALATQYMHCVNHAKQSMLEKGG


Legend:
[1] = target: C-terminally tagged QIL1 (QIL1-HA-FLAG) (human) (UniProt Q5XKP0); assay: affinity purification with mass spectrometry; C-terminally tagged QIL1 as bait (Figure 1C); cell line not stated for this bait in the text (293T and/or HCT116 by the supplement's legend)
[2] = target: T1, MIC60 C-terminally tagged with HA-FLAG (human); assay: affinity purification with mass spectrometry; C-terminally HA-FLAG-tagged baits stably expressed in 293T cells; lysis in 1% digitonin; purified on α-FLAG beads; complexes trypsinized; CompPASS scoring (network of Figure 1B)
[3] = target: T2, MIC27 C-terminally tagged with HA-FLAG (human); assay: as above
[4] = target: T3, MIC25 C-terminally tagged with HA-FLAG (human); assay: as above
[5] = target: T4, MIC19 C-terminally tagged with HA-FLAG (human); assay: as above

binding [1]	binding [2]	binding [3]	binding [4]	binding [5]	Binder
binds	binds	binds	binds	binds	SAMM50, endogenous (protein, UniProt Q9Y512 1-469) MGTVHARSLEPLPSSGPDFGGLGEEAEFVEVEPEAKQEILENKDVVVQHVHFDGLGRTKDDIIICEIGDVFKAKNLIEVMRKSHEAREKLLRLGIFRQVDVLIDTCQGDDALPNGLDVTFEVTELRRLTGSYNTMVGNNEGSMVLGLKLPNLLGRAEKVTFQFSYGTKETSYGLSFFKPRPGNFERNFSVNLYKVTGQFPWSSLRETDRGMSAEYSFPIWKTSHTVKWEGVWRELGCLSRTASFAVRKESGHSLKSSLSHAMVIDSRNSSILPRRGALLKVNQELAGYTGGDVSFIKEDFELQLNKQLIFDSVFSASFWGGMLVPIGDKPSSIADRFYLGGPTSIRGFSMHSIGPQSEGDYLGGEAYWAGGLHLYTPLPFRPGQGGFGELFRTHFFLNAGNLCNLNYGEGPKAHIRKLAECIRWSYGAGIVLRLGNIARLELNYCVPMGVQTGDRICDGVQFGAGIRFL
binds	binds	binds	binds	binds	MTX1, endogenous (protein, UniProt Q13505 1-466) MLLGGPPRSPRSGTSPKGPWSSTGHVQFGKSPQTWPRRTRPRSPEPAAPSGVRGSTWTRRRDSPRRAGPTALSRYVGHLWMGRRPPSPEARGPVPRSSAASRARRSLASPGISPGPLTATIGGAVAGGGPRQGRAEAHKEVFPGQRVGKMAAPMELFCWSGGWGLPSVDLDSLAVLTYARFTGAPLKVHKISNPWQSPSGTLPALRTSHGEVISVPHKIITHLRKEKYNADYDLSARQGADTLAFMSLLEEKLLPVLVHTFWIDTKNYVEVTRKWYAEAMPFPLNFFLPGRMQRQYMERLQLLTGEHRPEDEEELEKELYREARECLTLLSQRLGSQKFFFGDAPASLDAFVFSYLALLLQAKLPSGKLQVHLRGLHNLCAYCTHILSLYFPWDGAEVPPQRQTPAGPETEEEPYRRRNQILSVLAGLAAMVGYALLSGIVSIQRATPARAPGTRTLGMAEEDEEE
binds					DNAJC11, endogenous (protein, UniProt Q9NVH1 1-559) MATALSEEELDNEDYYSLLNVRREASSEELKAAYRRLCMLYHPDKHRDPELKSQAERLFNLVHQAYEVLSDPQTRAIYDIYGKRGLEMEGWEVVERRRTPAEIREEFERLQREREERRLQQRTNPKGTISVGVDATDLFDRYDEEYEDVSGSSFPQIEINKMHISQSIEAPLTATDTAILSGSLSTQNGNGGGSINFALRRVTSAKGWGELEFGAGDLQGPLFGLKLFRNLTPRCFVTTNCALQFSSRGIRPGLTTVLARNLDKNTVGYLQWRWGIQSAMNTSIVRDTKTSHFTVALQLGIPHSFALISYQHKFQDDDQTRVKGSLKAGFFGTVVEYGAERKISRHSVLGAAVSVGVPQGVSLKVKLNRASQTYFFPIHLTDQLLPSAMFYATVGPLVVYFAMHRLIIKPYLRAQKEKELEKQRESAATDVLQKKQEAESAVRLMQESVRRIIEAEESRMGLIIVNAWYGKFVNDKSRKSEKVKVIDVTVPLQCLVKDSKLILTEASKAGLPGFYDPCVGEEKNLKVLYQFRGVLHQVMVLDSEALRIPKQSHRIDTDG
